The values below come from the supplement of paper PMC12819154, “High-throughput peptide-centric local stability assay extends protein–ligand identification to membrane proteins, tissues and bacteria” (Nature Structural & Molecular Biology, 2025).

Chains of the proteins cited; added tags and fusions are not shown. Lines headed by an entry give the natural chain unless they say otherwise; changes in a name come on top.
UniProt Q6PGA0, whole entry: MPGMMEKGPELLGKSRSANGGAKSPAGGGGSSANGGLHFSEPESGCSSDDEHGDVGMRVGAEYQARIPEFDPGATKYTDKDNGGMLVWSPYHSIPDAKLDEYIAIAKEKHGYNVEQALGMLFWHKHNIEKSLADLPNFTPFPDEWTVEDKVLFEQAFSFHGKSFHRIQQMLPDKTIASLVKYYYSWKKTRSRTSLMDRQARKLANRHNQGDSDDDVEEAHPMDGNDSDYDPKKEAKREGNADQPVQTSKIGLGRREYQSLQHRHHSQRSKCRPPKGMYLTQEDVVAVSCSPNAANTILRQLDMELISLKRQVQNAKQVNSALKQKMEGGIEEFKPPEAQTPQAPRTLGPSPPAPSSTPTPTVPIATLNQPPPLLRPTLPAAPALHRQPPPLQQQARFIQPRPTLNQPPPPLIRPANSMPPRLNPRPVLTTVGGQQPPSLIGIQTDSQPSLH
UniProt Q6P5C5: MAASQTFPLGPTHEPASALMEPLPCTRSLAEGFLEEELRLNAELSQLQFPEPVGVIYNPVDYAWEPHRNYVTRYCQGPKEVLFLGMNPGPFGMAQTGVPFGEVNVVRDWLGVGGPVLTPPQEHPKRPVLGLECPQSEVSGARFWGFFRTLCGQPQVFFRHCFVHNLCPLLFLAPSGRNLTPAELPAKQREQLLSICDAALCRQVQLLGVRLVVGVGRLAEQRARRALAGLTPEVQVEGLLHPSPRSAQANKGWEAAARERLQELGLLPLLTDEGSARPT
UniProt Q6P1G0: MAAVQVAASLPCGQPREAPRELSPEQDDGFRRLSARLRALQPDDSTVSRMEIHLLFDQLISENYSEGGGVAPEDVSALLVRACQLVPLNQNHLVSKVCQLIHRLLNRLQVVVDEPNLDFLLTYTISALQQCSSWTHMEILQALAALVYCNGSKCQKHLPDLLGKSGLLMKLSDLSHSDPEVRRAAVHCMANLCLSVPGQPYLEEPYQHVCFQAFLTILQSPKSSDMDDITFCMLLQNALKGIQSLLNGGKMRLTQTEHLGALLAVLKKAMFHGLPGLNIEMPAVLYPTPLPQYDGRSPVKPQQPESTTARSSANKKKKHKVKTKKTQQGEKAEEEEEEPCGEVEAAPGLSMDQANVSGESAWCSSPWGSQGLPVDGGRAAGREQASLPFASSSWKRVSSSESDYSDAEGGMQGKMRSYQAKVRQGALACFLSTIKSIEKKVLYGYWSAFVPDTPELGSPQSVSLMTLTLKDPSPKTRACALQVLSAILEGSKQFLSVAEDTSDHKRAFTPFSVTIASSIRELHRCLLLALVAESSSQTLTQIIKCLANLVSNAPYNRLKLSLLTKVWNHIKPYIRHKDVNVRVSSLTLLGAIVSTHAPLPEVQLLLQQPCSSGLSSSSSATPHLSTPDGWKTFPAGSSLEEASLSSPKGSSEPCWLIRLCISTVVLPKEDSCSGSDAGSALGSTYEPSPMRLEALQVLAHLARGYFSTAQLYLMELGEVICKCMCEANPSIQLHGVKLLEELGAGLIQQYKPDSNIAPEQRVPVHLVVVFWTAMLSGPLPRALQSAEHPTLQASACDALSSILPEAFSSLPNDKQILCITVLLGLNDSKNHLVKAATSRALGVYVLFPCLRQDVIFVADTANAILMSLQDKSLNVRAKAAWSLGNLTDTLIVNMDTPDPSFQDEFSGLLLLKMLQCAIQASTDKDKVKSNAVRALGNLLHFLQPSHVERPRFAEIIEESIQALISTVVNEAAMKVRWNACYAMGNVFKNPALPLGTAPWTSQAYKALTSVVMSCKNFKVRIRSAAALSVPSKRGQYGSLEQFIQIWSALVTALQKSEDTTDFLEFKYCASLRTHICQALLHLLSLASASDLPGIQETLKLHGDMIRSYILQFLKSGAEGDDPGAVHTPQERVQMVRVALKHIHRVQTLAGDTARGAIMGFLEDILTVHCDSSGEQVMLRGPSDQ
UniProt Q6NXW6: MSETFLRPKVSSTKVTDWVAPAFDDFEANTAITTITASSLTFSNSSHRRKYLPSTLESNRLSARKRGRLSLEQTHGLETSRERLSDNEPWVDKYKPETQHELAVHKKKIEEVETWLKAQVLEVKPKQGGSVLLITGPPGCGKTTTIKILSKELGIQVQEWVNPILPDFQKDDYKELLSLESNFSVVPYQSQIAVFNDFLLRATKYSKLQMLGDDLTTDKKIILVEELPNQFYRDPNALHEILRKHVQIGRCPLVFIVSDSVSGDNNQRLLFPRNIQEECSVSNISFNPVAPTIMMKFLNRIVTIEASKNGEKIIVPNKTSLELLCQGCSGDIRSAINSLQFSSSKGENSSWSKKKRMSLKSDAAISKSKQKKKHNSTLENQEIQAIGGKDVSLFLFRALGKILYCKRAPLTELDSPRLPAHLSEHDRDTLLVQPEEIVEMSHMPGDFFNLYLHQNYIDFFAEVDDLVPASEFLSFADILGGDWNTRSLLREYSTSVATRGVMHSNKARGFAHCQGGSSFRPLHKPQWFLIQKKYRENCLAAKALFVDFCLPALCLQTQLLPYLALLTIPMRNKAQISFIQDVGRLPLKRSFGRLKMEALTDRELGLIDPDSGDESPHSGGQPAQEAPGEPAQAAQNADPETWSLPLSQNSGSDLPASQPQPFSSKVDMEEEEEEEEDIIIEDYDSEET
UniProt Q6P1I3: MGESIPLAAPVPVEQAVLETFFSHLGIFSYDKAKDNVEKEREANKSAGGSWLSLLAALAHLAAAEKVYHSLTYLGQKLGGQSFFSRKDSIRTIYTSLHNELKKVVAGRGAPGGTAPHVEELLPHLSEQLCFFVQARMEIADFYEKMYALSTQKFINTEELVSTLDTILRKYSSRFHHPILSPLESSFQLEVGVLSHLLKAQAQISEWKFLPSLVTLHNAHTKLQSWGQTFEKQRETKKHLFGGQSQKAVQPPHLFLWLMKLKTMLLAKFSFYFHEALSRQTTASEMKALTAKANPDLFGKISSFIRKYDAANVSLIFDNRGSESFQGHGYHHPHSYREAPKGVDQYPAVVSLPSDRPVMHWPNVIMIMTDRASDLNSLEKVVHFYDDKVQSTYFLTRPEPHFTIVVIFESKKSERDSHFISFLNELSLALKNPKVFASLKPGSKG
UniProt Q6PIU9: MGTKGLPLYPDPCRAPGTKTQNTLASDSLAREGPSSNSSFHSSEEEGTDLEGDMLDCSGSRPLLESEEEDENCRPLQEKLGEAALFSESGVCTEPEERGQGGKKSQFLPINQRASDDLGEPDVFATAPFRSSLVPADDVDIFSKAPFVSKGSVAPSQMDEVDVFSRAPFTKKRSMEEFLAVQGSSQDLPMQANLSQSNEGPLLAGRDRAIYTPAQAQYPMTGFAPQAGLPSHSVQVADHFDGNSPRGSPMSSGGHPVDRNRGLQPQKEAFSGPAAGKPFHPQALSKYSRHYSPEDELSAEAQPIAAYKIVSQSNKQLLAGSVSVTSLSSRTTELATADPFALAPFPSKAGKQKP
UniProt Q6DFW4: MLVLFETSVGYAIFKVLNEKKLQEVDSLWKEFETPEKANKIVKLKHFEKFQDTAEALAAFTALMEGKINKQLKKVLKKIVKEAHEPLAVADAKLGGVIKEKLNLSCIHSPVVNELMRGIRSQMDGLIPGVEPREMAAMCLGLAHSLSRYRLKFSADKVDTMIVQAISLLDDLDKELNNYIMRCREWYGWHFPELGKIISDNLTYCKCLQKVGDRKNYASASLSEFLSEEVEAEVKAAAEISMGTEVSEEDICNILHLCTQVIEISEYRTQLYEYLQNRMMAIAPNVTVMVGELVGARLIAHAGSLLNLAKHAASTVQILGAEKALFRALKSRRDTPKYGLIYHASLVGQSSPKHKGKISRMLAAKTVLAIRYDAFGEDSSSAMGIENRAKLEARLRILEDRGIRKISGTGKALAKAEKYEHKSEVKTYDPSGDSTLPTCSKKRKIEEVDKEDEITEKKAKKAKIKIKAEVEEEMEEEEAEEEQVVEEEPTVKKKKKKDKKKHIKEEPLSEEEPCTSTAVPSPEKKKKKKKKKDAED
UniProt Q6PFY9: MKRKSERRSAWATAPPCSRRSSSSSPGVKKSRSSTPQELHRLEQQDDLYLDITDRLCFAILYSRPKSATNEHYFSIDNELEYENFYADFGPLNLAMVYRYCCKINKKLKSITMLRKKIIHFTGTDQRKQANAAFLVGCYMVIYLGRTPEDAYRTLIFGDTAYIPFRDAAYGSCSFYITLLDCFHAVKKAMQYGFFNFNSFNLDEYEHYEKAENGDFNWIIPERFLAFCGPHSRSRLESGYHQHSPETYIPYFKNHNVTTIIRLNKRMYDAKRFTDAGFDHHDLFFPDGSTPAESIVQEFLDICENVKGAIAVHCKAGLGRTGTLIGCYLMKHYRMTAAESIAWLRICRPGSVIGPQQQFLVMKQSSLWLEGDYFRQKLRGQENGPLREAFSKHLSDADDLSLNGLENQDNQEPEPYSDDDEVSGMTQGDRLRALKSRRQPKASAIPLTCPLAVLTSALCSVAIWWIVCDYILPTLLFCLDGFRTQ
UniProt Q6PGH2: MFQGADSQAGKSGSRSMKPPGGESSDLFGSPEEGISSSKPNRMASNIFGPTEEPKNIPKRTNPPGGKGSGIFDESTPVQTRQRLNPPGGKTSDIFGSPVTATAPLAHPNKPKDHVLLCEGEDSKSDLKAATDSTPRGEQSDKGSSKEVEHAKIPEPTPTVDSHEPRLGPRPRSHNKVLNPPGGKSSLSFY
UniProt Q6DFV3: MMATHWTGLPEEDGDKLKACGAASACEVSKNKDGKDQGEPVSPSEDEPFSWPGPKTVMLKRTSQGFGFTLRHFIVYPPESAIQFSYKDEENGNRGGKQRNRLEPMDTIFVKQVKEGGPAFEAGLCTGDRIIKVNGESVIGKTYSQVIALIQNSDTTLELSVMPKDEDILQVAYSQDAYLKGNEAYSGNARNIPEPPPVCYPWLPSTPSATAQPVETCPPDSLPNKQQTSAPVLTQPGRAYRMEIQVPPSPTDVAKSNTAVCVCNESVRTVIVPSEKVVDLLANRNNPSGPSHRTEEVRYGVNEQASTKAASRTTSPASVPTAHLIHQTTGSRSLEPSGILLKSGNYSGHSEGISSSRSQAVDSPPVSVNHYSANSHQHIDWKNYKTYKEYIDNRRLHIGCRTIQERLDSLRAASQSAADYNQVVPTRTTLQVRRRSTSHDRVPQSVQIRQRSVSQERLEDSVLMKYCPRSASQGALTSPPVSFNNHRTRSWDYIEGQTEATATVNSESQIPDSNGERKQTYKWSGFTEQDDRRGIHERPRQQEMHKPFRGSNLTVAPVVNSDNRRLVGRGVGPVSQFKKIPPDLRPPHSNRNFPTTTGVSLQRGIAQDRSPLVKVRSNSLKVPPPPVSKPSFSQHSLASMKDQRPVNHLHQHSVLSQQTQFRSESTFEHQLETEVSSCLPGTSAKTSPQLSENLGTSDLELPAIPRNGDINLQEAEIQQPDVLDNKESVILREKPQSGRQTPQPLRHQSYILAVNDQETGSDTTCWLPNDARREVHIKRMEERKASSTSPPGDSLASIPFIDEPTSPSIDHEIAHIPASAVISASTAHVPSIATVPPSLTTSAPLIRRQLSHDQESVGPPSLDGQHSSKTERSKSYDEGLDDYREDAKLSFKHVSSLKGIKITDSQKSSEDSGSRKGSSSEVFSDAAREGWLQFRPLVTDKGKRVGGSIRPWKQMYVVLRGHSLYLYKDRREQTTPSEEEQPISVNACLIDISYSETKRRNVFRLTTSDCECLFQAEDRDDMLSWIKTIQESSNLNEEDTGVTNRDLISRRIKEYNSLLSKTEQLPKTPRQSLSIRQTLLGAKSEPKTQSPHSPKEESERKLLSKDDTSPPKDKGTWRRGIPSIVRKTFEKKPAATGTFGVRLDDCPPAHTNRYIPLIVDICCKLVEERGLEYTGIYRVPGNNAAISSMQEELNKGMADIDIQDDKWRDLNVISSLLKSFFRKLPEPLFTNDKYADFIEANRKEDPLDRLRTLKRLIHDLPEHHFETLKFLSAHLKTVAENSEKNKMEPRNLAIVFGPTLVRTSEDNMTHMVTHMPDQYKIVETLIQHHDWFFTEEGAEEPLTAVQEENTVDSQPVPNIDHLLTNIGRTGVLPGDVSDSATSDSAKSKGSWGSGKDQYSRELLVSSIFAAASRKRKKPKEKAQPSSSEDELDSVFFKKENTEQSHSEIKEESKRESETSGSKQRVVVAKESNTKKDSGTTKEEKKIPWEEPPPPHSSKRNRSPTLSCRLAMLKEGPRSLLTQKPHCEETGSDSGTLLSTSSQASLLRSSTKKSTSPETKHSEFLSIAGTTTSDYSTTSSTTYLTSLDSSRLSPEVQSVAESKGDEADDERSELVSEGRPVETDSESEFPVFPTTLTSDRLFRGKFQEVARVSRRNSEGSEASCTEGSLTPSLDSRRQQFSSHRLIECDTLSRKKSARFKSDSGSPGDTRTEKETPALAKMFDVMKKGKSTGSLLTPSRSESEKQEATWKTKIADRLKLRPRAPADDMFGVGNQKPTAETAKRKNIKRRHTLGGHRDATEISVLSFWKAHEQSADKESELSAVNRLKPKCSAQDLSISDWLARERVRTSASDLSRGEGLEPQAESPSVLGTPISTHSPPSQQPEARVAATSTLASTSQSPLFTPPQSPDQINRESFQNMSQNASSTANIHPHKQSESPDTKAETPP

This is one part of the list. Most values lie at the level of the controls, where differences are scatter.

Compound in this assay: CN[C@@H]1C[C@H]2O[C@@](C)([C@@H]1OC)n1c3ccccc3c3c4c(c5c6ccccc6n2c5c31)C(=O)NC4 [staurosporine]
Briefly: log2 fold change of tryptic peptide abundance, ligand vs vehicle (limited proteolysis) (log2 ratio); higher = more trypsin-susceptible (destabilized). The note with it: ligand concentration: 20 uM; sample: mouse liver crude lysate; replicate design: treated separately.
Take “UniProt Q6P9R4 (peptide sequence: HLGSTSSQVEEGSVSAGLPR, peptide start residue: 929)”: the log2 fold change was -0.223. The value for “UniProt Q69ZZ9 (peptide sequence: ELIEGSRDDTTWVK, peptide start residue: 6683)” was -0.481; that for “UniProt Q6P5D3 (peptide sequence: SLFAENSK, peptide start residue: 514)” was -0.167; that for “UniProt Q6PEM6 (peptide sequence: ILPAHGQSETIGILHK, peptide start residue: 332)” was 0.262. For “UniProt Q6P5E6 (peptide sequence: FLNELIK, peptide start residue: 90)”, the log2 fold change was -0.125.

“UniProt Q69ZT9 (peptide sequence: TPIFSPFPSVKPLRK, peptide start residue: 711)”: the log2 fold change was -0.0582. For the target “UniProt Q6P5E8 (peptide sequence: AGTTEEEASKGSCPR, peptide start residue: 358)”, the log2 fold change was found to be 0.194.

In the case of “UniProt Q6NVE8 (peptide sequence: IIESIIEESQK, peptide start residue: 63)”, the log2 fold change was -0.0993.

Regarding “UniProt Q6PGA0 (peptide sequence: EGNADQPVQTSK, peptide start residue: 238)”, the log2 fold change was -0.192. The value for “UniProt Q6RI63 (peptide sequence: THWDSPYTGR, peptide start residue: 737)” was 0.493; that for “UniProt Q6P549 (peptide sequence: LGVVFEKEKDR, peptide start residue: 378)” was -0.304; that for “UniProt Q6P5C5 (peptide sequence: RALAGLTPEVQVEGLLHPSPR, peptide start residue: 225)” was -0.144.

Take “UniProt Q6PDK8 (peptide sequence: AGGSVVLGQVDSR, peptide start residue: 40)”: the log2 fold change is -0.268.

For the target “UniProt Q6P6L0 (peptide sequence: ELSQEVENLK, peptide start residue: 625)”, the log2 fold change was -0.245. In the case of “UniProt Q6P1G0 (peptide sequence: VQTLAGDTAR, peptide start residue: 1145)”, the log2 fold change is -0.566. Consider “UniProt Q6NXW6 (peptide sequence: KIEEVETWLK, peptide start residue: 108)”, for which the log2 fold change was -0.47. “UniProt Q6DI86 (peptide sequence: HLEILGYR, peptide start residue: 788)”: the log2 fold change is -0.208. The value for “UniProt Q6URW6 (peptide sequence: AQTSAAGQGKEEAVK, peptide start residue: 1652)” was -0.719.

On to “UniProt Q6PJN8 (peptide sequence: EATLPPGVLGR, peptide start residue: 204)”, for which the log2 fold change was determined as 0.184.

Turning to “UniProt Q6P1I3 (peptide sequence: LGGQSFFSR, peptide start residue: 78)”, the log2 fold change stood at 0.46. On to “UniProt Q6P5F9 (peptide sequence: QMLPLNTNIR, peptide start residue: 296)”, for which the log2 fold change was 0.176. On to “UniProt Q6P3B2 (peptide sequence: AHPAMEAER, peptide start residue: 168)”, for which the log2 fold change stood at 0.0176. For “UniProt Q6PDZ2 (peptide sequence: RFLGHMER, peptide start residue: 631)”, the log2 fold change stood at 0.386.

Consider “UniProt Q6PIU9 (peptide sequence: GSPMSSGGHPVDR, peptide start residue: 247)”, for which the log2 fold change was determined as 0.057.

“UniProt Q6PIC6 (peptide sequence: LIIVEGCQR, peptide start residue: 699)”: the log2 fold change is -0.407. As for “UniProt Q6DFW4 (peptide sequence: KIVKEAHEPLAVADAK, peptide start residue: 78)”, the log2 fold change is -0.436. As for “UniProt Q6PD31 (peptide sequence: KELQLEELESPDITHQKR, peptide start residue: 381)”, the log2 fold change is -0.35. Regarding “UniProt Q6PFY9 (peptide sequence: GQENGPLR, peptide start residue: 380)”, the log2 fold change was -0.212. Turning to “UniProt Q6PGH2 (peptide sequence: QRLNPPGGK, peptide start residue: 82)”, the log2 fold change is -0.295. Regarding “UniProt Q6DFV3 (peptide sequence: GSNLTVAPVVNSDNRR, peptide start residue: 550)”, the log2 fold change is -0.294. For “UniProt Q6PIJ4 (peptide sequence: TADKIELGDSDLK, peptide start residue: 246)”, the log2 fold change is -0.6.
